Assay results from patent US12350266B2, “FGFR2 inhibitors for the treatment of cholangiocarcinoma” (Janssen Pharmaceutica NV, priority 2017, dated 2025).

Tested on: advanced cholangiocarcinoma with FGFR alterations

SMILES: COc1cc(OC)cc(N(CCNC(C)C)c2ccc3ncc(-c4cnn(C)c4)nc3c2)c1 [erdafitinib, N-(3,5-dimethoxy-phenyl)-N′-(1-methylethyl)-N-[3-(1-methyl-1H-pyrazol-4-yl)quinoxalin-6-yl]ethane-1,2-diamine]
- FGFR alterations of participants with confirmed or unconfirmed partial response (8 mg qd): FGFR2-KIAA1598 and DTWD2-FGFR2 fusions, with ESR2-FGFR2 fusion, with FGFR2 C390>YS mutation and with FGFR2-MGEA5 fusion
- FGFR alterations of participants with stable disease (8 mg qd): FGFR2-BICC1 fusion, with FGFR2 fusion with SBNO2 partner, with FGFR2 N549K mutation, and with FGFR2-KIAA1598 fusion
- clinical activity (conclusion) (patients with FGFR-aberrant advanced cholangiocarcinoma): encouraging clinical activity
